{
  "sequences": {"note": "Amino acid sequences for entries named in this document (tags omitted). A change or cut given only in a name is not applied to a line headed by its entry. Chains listed by the source or under a name are the forms on record and can include a tag or linker.", "cyno CCR8 (G7NYJ2, form named)": "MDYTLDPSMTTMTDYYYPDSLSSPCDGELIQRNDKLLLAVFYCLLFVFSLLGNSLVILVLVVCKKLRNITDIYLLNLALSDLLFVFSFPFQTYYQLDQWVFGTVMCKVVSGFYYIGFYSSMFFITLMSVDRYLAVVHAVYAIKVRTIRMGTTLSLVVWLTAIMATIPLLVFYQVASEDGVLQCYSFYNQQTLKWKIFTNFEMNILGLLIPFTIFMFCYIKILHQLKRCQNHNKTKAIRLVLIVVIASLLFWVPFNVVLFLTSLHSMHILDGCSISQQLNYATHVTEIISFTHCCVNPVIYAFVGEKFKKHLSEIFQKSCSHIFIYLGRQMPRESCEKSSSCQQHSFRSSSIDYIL"},
  "source": "patent US20250368744A1",
  "about": "(CONCEPT TO MEDICINE BIOTECH, published 2025)",
  "binders": {"B1": {"name": "195H8D10 (antibody, V domains shown)", "VH": "EVQLVGSGGGLVQPKGSLKLSCAASGFNFNTYVMNWVRQAPGKGLEWVARIRTKSNNYATYYADSVKDRFTISRDDSESKLYLQMNNLKTEDTAMYYCVSGTITRLGGGLDYWGQGTSVTVSS", "VL": "DIVMTQAAPSVPVTPGESVSISCRSSKRLLHSNGNTYLYWFLQRPGQSPQLLIYRMSNLASGVPDRFSGSGSGTAFTLRISRVEAEDVGVYYCMQHLEYPFTFGGGTKLEIK", "notes": "tested as chimeric mAb; also called 195H8D10-C"}, "B2": {"name": "187B5F10 (antibody, V domains shown)", "VH": "B1 VH with L110M", "VL": "B1 VL", "notes": "tested as chimeric mAb"}, "B3": {"name": "195H8D10-C2 (antibody, V domains shown)", "VH": "B1 VH", "VL": "B1 VL with G34A", "notes": "also called 195H8D10 VH with 195H8D10 VL NG-NA"}, "B4": {"name": "200C9B9 (antibody, V domains shown)", "VH": "B1 VH with G6E, N28S, E46N, Y61F, A63V, S79N, K80M, T90I, M95I, G108A", "VL": "B1 VL with R28S", "notes": "tested as chimeric mAb; also called 200C9B9-C"}, "B5": {"name": "200C9B9-C1 (antibody, V domains shown)", "VH": "B1 VH with G6E, N28S, E46N, Y61F, A63V, S79N, K80M, T90I, M95I, G108A", "VL": "B1 VL with R28S, N33Q", "notes": "also called 200C9B9 VH with 200C9B9 VL NG-QG"}, "B6": {"name": "200C9B9-C2 (antibody, V domains shown)", "VH": "B1 VH with G6E, N28S, E46N, Y61F, A63V, S79N, K80M, T90I, M95I, G108A", "VL": "B1 VL with R28S, G34A", "notes": "also called 200C9B9 VH with 200C9B9 VL NG-NA"}, "B7": {"name": "Hu200C9B9-12 (antibody, V domains shown)", "VH": "EVQLVESGGGLVQPGGSLRLSCAASGFSFNTYVMNWVRQAPGKGLNWVARIRTKSNNYATFYVDSVKDRFTISRDDSKNSLYLQMNSLKTEDTAVYYCVSGTITRLGAGLDYWGQGTLVTVSS", "VL": "B1 VL with A7S, A8P, P9L, V11L, S18P, V19A, R28S, R44K, R79K", "notes": "humanized"}, "B8": {"name": "Hu200C9B9-14 (antibody, V domains shown)", "VH": "B7 VH with K78E", "VL": "B1 VL with A7S, A8P, P9L, V11L, S18P, V19A, R28S, R44K, A75D, R79K", "notes": "humanized"}, "B9": {"name": "Hu200C9B9-15 (antibody, V domains shown)", "VH": "B7 VH with K78E", "VL": "B1 VL with A7S, A8P, P9L, V11L, S18P, V19A, R28S, F41Y, R44K, R79K", "notes": "humanized"}, "B10": {"name": "Hu200C9B9-3 (antibody, V domains shown)", "VH": "B7 VH with N46E, A49G, V99A, S100R", "VL": "B1 VL with A7S, A8P, P9L, V11L, S18P, V19A, R28S, F41Y, R44K, R79K", "notes": "humanized"}, "B11": {"name": "Hu200C9B9-6 (antibody, V domains shown)", "VH": "B7 VH with N46E", "VL": "B1 VL with A7S, A8P, P9L, V11L, S18P, V19A, R28S, R44K, A75D, R79K", "notes": "humanized"}, "B12": {"name": "Hu200C9B9-7 (antibody, V domains shown)", "VH": "B7 VH with N46E", "VL": "B1 VL with A7S, A8P, P9L, V11L, S18P, V19A, R28S, F41Y, R44K, R79K", "notes": "humanized"}, "B13": {"name": "Hu200C9B9-9 (antibody, V domains shown)", "VH": "B7 VH", "VL": "DIVMTQSPLSLPVTPGEPASISCRSSKSLLHSNGNTYLYWYLQKPGQSPQLLIYRMSNLASGVPDRFSGSGSGTDFTLKISRVEAEDVGVYYCMQHLEYPFTFGGGTKLEIK", "notes": "humanized"}, "B14": {"name": "Hu200C9B9-13 (antibody, V domains shown)", "VH": "B7 VH with K78E", "VL": "B13 VL", "notes": "humanized"}, "B15": {"name": "Hu200C9B9-16 (antibody, V domains shown)", "VH": "B7 VH with K78E", "VL": "B13 VL with Y41F, D75A", "notes": "humanized"}, "B16": {"name": "163H9D5 (antibody, V domains shown)", "VH": "EVQLVESGGGLVQPKGSLKLSCAASGFSFNTYAMNWVRQAPGKGLKWVARIRTKSNNYATHYADSVKDRFTLSRDDSESMLYLQMNNLKTEDTAMYYCVGGGYGSSASNAMAYWGQGTSVTVSS", "VL": "B1 VL with R28S, Y54F, G105S", "notes": "tested as chimeric mAb"}, "B17": {"name": "84D1-2H3 (antibody, V domains shown)", "VH": "EVQLQQSGPVLVKPGASVKMSCKASGYTFTDYYVNWVKKSHGKSPEWIGIIKPYNGGTSYNQKFKGKATLTVDKSSSTVYMELNSLTSEDSAVYHCARFAYSRNPYAMDYWGQGTSVTVSS", "VL": "DVLLTQTPLSLPVSLGDQASISCRSSQSIVHSTGNTYLEWYLQKPGQSPKVLIYKVSTRFSGVPDRFSGSGSGTDFTLKISRVEAEDLGVYYCFQGSHVPPTFGGGTKLEIK", "notes": "tested as chimeric mAb of the mouse hybridoma clone"}, "B18": {"name": "86D4E12A5 (antibody, V domains shown)", "VH": "DLQLKESGPGLVKPSQSLSLTCSVTGYSITSGYYWNWIRQLPGNKLEWMGYISFDGSNNYNPSLKTRISITRDTSKNQFFLKLNSVTSEDTATYFCARLRGLLLGHFDVWGTGTTVTVSS", "VL": "DVQMTQSSSYLSVPLGGRVTITCKASDHINNRLAWYQQKPGNAPRLLISGATKLETGIPSRFRGSGSGKDYTLSIFSLQTEDVATYYCQQYWSTSYTFGGGTKLELR", "notes": "tested as chimeric mAb"}, "B19": {"name": "99D1-1E11 (antibody, V domains shown)", "VH": "B18 VH with L41F, F54Y, F95Y, A97V, L99E", "VL": "B18 VL with V2I, P14A", "notes": "tested as chimeric mAb"}, "B20": {"name": "96G3-1F10 (antibody, V domains shown)", "VH": "DLQLKESGPGLVKPSQSLSLTCSVTGYSITSGYYWNWIRQFPGNKLEWMGFISYDGNNNYNPSLKNRISITRDTSKNQFFLNVKSVTTEDTATYYCSRATGLRKAWFAYWGQGTLVTVSA", "VL": "DIQMTQSSSYLSVSLGGRVTITCKASDHINNWLAWYQQKPGNAPRLLISDTTSLGTGVPSRFRGSGSGKDYTLSITSLQTEDVATYFCQQYWSYPYTFGGGTKLEIR", "notes": "tested as chimeric mAb"}, "B21": {"name": "101D5G10G4 (antibody, V domains shown)", "VH": "B20 VH with F51Y, V83L, K84N", "VL": "B20 VL", "notes": "tested as chimeric mAb"}, "B22": {"name": "115C5E3B8 (antibody, V domains shown)", "VH": "DVQLQESGPGLVKPSQSLSLTCSVTGYSITSGYYWNWIRQFPGNKLEWMGYISYDGYNDYNPSLKNRISITRDTSKNQFFLKLNSVTTEDTATYYCARETGLRKAWFAYWGQGTLVTVSG", "VL": "B20 VL with W32R, T52S, G55E, R63S, S74R, F87Y, S93G, Y94T, R107K", "notes": "tested as chimeric mAb"}},
  "key": {"cyno CCR8 [1]": {"biological_target": "T1, cyno CCR8 (cynomolgus, UniProt G7NYJ2 1-355)", "T1 construct": "whole, on cells; also called cynomolgus CCR8 protein", "assay": "FACS (MFI-PE) on CHO-K1 cyno CCR8 cells, bars at five doses [cont'd) C]"}, "cyno CCR8 [2]": {"biological_target": "T1, cyno CCR8", "assay": "FACS, CHO-K1 cyno CCR8 cells, chimeric mAb"}, "cyno CCR8 [3]": {"biological_target": "T1, cyno CCR8", "assay": "binding to cyno CCR8, FIG. 9B; method not described in Example 11"}, "cyno CCR8 [4]": {"biological_target": "T1, cyno CCR8", "assay": "FACS (MFI-PE) on CHO-K1 cyno CCR8 cells, bars at five doses [cont'd) D]"}, "cyno CCR8 [5]": {"biological_target": "T1, cyno CCR8", "assay": "FACS (MFI-PE) on CHO-K1 cyno CCR8 cells"}, "cyno CCR8 [6]": {"biological_target": "T1, cyno CCR8", "assay": "FACS, CHO-K1 cyno CCR8 cells"}},
  "note": "Substitutions are numbered along the chain they refer to. No constants are given. Whether binding was seen depends on the method and setting. Some binding calls cover weakened binding; strength is not graded here.",
  "data": [
    {"binder": "B1", "values": [
      {"measurement": "binding", "setting": "cyno CCR8 [1]", "value": "binds"},
      {"measurement": "binding", "setting": "cyno CCR8 [2]", "value": "binds"}
    ]},
    {"binder": "B2", "values": [
      {"measurement": "binding", "setting": "cyno CCR8 [2]", "value": "binds"}
    ]},
    {"binder": "B3", "values": [
      {"measurement": "binding", "setting": "cyno CCR8 [3]", "value": "binds"}
    ]},
    {"binder": "B4", "values": [
      {"measurement": "binding", "setting": "cyno CCR8 [4]", "value": "binds"},
      {"measurement": "binding", "setting": "cyno CCR8 [2]", "value": "binds"}
    ]},
    {"binder": "B5", "values": [
      {"measurement": "binding", "setting": "cyno CCR8 [5]", "value": "binds"}
    ]},
    {"binder": "B6", "values": [
      {"measurement": "binding", "setting": "cyno CCR8 [3]", "value": "binds"}
    ]},
    {"binder": "B7", "values": [
      {"measurement": "binding", "setting": "cyno CCR8 [6]", "value": "binds"},
      {"measurement": "binding", "setting": "cyno CCR8 [4]", "value": "binds"}
    ]},
    {"binder": "B8", "values": [
      {"measurement": "binding", "setting": "cyno CCR8 [6]", "value": "binds"},
      {"measurement": "binding", "setting": "cyno CCR8 [4]", "value": "binds"}
    ]},
    {"binder": "B9", "values": [
      {"measurement": "binding", "setting": "cyno CCR8 [6]", "value": "binds"},
      {"measurement": "binding", "setting": "cyno CCR8 [4]", "value": "binds"}
    ]},
    {"binder": "B10", "values": [
      {"measurement": "binding", "setting": "cyno CCR8 [6]", "value": "binds"},
      {"measurement": "binding", "setting": "cyno CCR8 [4]", "value": "binds"}
    ]},
    {"binder": "B11", "values": [
      {"measurement": "binding", "setting": "cyno CCR8 [6]", "value": "binds"},
      {"measurement": "binding", "setting": "cyno CCR8 [4]", "value": "binds"}
    ]},
    {"binder": "B12", "values": [
      {"measurement": "binding", "setting": "cyno CCR8 [6]", "value": "binds"},
      {"measurement": "binding", "setting": "cyno CCR8 [4]", "value": "binds"}
    ]},
    {"binder": "B13", "values": [
      {"measurement": "binding", "setting": "cyno CCR8 [6]", "value": "binds"},
      {"measurement": "binding", "setting": "cyno CCR8 [4]", "value": "binds"}
    ]},
    {"binder": "B14", "values": [
      {"measurement": "binding", "setting": "cyno CCR8 [6]", "value": "binds"},
      {"measurement": "binding", "setting": "cyno CCR8 [4]", "value": "binds"}
    ]},
    {"binder": "B15", "values": [
      {"measurement": "binding", "setting": "cyno CCR8 [6]", "value": "binds"},
      {"measurement": "binding", "setting": "cyno CCR8 [4]", "value": "binds"}
    ]},
    {"binder": "B16", "values": [
      {"measurement": "binding", "setting": "cyno CCR8 [6]", "value": "no binding (tested: 100 nM (highest concentration tested))"},
      {"measurement": "binding", "setting": "cyno CCR8 [5]", "value": "no binding (tested: 100 nM)"}
    ]},
    {"binder": "B17", "values": [
      {"measurement": "binding", "setting": "cyno CCR8 [2]", "value": "binds"}
    ]},
    {"binder": "B18", "values": [
      {"measurement": "binding", "setting": "cyno CCR8 [2]", "value": "binds"}
    ]},
    {"binder": "B19", "values": [
      {"measurement": "binding", "setting": "cyno CCR8 [2]", "value": "binds"}
    ]},
    {"binder": "B20", "values": [
      {"measurement": "binding", "setting": "cyno CCR8 [2]", "value": "binds"}
    ]},
    {"binder": "B21", "values": [
      {"measurement": "binding", "setting": "cyno CCR8 [2]", "value": "binds"}
    ]},
    {"binder": "B22", "values": [
      {"measurement": "binding", "setting": "cyno CCR8 [2]", "value": "binds"}
    ]}
  ]
}
